Laboratory results as given in paper PMC11478834.

Chains of the proteins cited; added tags and fusions are not shown. Lines headed by an entry give the natural chain unless they say otherwise; changes in a name come on top.
UniProt C4M9D7: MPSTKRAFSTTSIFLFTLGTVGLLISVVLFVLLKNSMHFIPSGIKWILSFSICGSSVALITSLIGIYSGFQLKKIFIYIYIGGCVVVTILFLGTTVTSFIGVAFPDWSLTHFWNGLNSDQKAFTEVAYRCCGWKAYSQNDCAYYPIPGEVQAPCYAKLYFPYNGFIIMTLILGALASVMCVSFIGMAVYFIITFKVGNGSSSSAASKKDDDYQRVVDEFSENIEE
UniProt C4M9J5: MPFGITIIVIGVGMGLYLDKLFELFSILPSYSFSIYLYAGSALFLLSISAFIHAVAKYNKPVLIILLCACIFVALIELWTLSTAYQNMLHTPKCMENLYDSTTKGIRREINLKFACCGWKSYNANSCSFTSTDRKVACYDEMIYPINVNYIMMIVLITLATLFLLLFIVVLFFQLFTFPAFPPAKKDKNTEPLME
UniProt C4M992: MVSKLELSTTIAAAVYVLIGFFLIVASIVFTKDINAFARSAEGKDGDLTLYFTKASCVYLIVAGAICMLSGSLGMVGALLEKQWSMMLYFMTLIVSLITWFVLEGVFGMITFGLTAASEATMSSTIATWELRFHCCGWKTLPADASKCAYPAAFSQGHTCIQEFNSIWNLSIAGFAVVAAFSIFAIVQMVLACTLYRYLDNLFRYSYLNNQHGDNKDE
UniProt C4M5N2: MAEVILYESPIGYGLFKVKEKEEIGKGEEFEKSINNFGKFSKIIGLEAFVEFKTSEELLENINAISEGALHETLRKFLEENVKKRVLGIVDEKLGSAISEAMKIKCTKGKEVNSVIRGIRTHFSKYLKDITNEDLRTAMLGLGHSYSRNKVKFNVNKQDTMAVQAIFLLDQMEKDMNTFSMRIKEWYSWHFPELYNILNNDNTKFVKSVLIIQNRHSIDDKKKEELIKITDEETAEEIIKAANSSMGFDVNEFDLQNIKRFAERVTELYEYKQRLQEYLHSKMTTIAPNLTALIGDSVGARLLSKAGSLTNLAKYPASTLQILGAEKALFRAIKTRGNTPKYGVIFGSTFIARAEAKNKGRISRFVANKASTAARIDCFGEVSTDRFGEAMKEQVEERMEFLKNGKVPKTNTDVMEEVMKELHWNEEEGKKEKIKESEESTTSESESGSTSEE
UniProt C4M8E1: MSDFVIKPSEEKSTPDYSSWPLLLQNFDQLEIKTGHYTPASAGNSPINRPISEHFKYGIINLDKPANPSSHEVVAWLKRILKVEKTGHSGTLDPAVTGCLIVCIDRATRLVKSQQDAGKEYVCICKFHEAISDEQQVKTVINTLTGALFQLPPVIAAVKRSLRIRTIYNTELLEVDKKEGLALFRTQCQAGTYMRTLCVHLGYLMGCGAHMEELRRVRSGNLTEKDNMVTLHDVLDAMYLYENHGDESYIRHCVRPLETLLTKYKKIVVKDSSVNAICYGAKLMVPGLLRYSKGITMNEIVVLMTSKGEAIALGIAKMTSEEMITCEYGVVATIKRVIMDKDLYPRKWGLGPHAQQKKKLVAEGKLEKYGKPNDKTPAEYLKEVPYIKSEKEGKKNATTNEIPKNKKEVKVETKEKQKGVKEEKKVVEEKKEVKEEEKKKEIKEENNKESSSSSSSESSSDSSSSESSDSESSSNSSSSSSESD
UniProt C4LZB0: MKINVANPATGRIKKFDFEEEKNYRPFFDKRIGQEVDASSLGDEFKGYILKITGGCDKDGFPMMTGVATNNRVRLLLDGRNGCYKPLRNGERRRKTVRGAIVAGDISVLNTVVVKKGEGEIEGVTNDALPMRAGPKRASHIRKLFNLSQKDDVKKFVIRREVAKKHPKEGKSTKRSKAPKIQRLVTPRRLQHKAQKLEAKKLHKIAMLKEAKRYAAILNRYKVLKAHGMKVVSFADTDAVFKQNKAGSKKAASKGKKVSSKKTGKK
UniProt C4LS87: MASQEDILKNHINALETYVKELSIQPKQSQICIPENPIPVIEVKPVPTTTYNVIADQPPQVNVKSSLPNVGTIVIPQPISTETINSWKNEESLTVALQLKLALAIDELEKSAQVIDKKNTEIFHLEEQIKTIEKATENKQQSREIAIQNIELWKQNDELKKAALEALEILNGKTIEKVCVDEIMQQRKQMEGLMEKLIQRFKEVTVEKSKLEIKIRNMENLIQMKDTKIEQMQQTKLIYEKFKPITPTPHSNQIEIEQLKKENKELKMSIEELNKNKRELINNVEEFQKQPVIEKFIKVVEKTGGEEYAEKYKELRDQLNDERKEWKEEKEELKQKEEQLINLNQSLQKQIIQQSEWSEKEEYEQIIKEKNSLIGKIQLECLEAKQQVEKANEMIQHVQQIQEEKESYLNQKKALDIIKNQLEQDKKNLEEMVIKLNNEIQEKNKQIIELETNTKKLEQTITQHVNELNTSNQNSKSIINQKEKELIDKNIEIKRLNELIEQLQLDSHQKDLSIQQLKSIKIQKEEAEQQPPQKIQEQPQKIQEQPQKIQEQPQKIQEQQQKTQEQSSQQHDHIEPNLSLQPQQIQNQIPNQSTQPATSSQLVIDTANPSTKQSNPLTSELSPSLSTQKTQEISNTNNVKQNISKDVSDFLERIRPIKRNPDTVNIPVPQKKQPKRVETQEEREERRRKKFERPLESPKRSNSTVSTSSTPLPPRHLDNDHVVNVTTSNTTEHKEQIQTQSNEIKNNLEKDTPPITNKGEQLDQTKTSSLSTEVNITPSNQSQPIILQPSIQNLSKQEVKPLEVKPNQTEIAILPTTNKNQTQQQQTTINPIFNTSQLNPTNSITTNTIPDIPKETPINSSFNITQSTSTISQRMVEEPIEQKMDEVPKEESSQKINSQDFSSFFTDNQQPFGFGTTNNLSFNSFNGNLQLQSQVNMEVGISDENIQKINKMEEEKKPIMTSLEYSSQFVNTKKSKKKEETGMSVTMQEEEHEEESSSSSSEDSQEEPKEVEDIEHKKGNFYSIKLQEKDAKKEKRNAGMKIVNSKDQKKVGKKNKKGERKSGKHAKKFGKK
UniProt A0A5K1UWE4: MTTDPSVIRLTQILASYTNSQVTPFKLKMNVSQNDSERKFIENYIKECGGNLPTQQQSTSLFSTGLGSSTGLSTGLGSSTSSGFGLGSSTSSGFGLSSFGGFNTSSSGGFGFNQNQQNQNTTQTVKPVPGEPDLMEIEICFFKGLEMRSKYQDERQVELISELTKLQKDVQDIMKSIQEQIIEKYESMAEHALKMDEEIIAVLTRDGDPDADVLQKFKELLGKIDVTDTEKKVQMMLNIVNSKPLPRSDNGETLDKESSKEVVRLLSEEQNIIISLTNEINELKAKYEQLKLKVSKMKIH
UniProt C4M730: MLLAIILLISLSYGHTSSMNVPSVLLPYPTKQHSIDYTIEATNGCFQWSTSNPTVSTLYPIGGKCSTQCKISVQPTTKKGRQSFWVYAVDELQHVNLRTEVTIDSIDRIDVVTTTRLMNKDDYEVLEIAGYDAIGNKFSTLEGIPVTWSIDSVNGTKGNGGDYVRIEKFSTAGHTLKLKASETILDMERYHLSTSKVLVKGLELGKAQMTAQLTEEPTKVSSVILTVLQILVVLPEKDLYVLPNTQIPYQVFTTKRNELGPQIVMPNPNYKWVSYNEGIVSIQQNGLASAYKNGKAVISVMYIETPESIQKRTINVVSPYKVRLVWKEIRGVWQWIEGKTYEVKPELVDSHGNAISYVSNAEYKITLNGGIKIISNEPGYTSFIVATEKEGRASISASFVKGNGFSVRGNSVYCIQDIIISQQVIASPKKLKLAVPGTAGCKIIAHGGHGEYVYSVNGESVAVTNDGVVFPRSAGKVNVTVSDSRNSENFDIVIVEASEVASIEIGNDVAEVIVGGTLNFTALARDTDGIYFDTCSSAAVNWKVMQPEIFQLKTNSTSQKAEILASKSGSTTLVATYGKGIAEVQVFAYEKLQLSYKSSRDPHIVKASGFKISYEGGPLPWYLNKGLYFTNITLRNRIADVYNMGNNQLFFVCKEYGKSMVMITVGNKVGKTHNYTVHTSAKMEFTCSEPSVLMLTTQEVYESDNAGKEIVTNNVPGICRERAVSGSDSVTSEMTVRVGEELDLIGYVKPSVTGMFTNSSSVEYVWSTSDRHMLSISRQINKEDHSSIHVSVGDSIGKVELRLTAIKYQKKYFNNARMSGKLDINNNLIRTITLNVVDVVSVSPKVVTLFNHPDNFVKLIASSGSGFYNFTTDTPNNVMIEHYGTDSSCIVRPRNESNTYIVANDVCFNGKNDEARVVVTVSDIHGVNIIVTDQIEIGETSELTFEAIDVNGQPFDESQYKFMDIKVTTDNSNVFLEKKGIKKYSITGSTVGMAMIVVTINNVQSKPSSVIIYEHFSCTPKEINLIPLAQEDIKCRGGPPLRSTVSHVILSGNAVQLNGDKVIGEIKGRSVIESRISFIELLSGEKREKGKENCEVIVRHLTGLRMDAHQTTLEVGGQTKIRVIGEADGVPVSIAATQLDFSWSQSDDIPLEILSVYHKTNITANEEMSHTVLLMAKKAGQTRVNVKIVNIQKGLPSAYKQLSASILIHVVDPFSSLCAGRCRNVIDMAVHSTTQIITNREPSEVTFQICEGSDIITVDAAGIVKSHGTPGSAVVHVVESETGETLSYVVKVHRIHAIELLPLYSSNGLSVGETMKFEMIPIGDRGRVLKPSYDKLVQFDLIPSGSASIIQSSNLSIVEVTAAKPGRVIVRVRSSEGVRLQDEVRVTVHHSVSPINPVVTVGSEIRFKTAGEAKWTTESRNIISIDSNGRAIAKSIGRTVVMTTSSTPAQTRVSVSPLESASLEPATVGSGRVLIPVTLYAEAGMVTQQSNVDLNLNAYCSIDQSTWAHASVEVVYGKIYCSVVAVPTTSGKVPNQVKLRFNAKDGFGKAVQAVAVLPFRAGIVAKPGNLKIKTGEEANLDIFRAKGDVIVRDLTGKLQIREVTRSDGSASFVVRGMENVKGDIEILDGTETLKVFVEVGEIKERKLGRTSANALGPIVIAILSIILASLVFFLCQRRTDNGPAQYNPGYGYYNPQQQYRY
UniProt C4LTC5: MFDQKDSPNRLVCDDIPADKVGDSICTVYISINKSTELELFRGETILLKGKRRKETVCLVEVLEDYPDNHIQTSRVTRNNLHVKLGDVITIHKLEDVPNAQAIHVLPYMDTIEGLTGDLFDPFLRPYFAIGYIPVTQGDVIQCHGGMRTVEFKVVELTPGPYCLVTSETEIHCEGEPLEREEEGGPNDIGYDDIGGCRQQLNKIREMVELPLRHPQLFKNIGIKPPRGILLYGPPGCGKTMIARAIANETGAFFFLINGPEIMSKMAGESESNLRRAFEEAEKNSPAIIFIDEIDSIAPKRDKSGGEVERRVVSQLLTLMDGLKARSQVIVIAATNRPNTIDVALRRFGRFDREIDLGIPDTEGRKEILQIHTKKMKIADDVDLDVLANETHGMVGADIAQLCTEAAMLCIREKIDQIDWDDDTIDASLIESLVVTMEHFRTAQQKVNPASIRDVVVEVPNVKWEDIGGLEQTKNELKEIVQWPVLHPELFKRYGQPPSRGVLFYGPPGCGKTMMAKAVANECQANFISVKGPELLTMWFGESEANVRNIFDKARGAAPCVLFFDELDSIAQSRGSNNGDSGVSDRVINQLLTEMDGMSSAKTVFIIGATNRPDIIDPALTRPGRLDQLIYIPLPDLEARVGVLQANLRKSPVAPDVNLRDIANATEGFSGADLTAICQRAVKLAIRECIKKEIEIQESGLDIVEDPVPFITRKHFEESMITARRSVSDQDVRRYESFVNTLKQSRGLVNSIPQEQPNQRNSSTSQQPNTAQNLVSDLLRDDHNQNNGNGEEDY

Columns and labels:
Experiment in all cases: affinity purification with mass spectrometry; trophozoites of HA-tagged transformants fixed with DSP, lysed in lysis buffer, pre-cleared on Protein G Sepharose; bait held on anti-HA agarose (4°C, 3.5 h), three washes, eluted with HA peptide 0.2 mg/ml overnight at 4°C; eluates sequenced by mass spectrometry against the HA-mock control; three independent trials (two for Ehinteraptin-HA)
[1] = molecular target: TSPAN12 (EHI_091490) (Entamoeba histolytica) (UniProt C4M9D7)
[2] = molecular target: TSPAN13 (EHI_107790) (Entamoeba histolytica) (UniProt C4M9J5)
[3] = molecular target: TSPAN4 (EHI_075690) (Entamoeba histolytica) (UniProt C4M992)
[4] = molecular target: Ehinteraptin (EHI_148910) (Entamoeba histolytica) (UniProt C4LT58)

| Substance | binding [1] | binding [2] | binding [3] | binding [4] |
| --- | --- | --- | --- | --- |
| TSPAN4 (EHI_075690) (from UniProt C4M992) | binds |  |  |  |
| nucleolar protein 56 (Nop56, EHI_122740) (from UniProt C4M5N2) | no binding | no binding | binds | binds |
| centromere binding protein cbf5 (EHI_115300) (from UniProt C4M8E1) | binds | no binding | no binding | binds |
| 40S ribosomal protein S6 (EHI_000590) (from UniProt C4LZB0) |  |  |  | binds |
| SMC-domain containing protein (EHI_152940) (from UniProt C4LS87) | binds | binds | binds | binds |
| Nucleoporin 54 (Nup54, EHI_010010) (from UniProt A0A5K1UWE4) | binds | binds | no binding | binds |
| TSPAN12 (EHI_091490) (from UniProt C4M9D7) |  |  | binds |  |
| Nucleoporin210 (Nup210, EHI_183510) (from UniProt C4M730) | binds | binds | binds | binds |
| Cell division cycle protein 48 (EHI_045120) (from UniProt C4LTC5) |  | binds |  |  |

These are yes or no findings as the source states them, for the method shown. In cells and extracts the contact can be indirect. Here binding means that the protein was enriched with, or labelled near, the bait; the list need not be complete. For part of these data: No binding means not detected with the bait.
